For at least one compound, name, drawing or mass did not settle the structure.
What was measured:
[1] = target: T1, rat ATB^0,+ (Rattus norvegicus, UniProt Q334I2); experiment: Inhibition of ATB0,+-mediated 3H-glycine uptake in HRPE cells expressing cloned rat ATB0,+; assay type: cell-based; details: 5 mM
T1 sequence (Q334I2 1-640): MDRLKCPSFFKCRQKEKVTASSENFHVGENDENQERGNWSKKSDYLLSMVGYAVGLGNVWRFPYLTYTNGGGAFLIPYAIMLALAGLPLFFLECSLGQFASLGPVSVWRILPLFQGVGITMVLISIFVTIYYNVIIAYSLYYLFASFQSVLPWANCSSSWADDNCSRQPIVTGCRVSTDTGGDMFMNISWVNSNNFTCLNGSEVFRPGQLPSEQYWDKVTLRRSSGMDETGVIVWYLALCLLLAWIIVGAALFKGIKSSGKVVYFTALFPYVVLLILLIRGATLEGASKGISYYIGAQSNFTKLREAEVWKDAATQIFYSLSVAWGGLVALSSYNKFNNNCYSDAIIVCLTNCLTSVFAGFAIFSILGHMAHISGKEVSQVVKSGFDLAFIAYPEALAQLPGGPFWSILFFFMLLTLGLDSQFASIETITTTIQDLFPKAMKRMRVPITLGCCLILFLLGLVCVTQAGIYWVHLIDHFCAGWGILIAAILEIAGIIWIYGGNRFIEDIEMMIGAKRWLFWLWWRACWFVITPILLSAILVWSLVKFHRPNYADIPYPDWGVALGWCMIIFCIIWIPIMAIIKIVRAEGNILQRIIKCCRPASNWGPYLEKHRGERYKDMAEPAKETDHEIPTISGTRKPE

[2] = target: T2, human SLC5A8 (Homo sapiens, UniProt Q8N695, F251V/V193I); experiment: Uptake of radiolabeled short-chain fatty acids in Xenopus oocytes injected with SLC5A8 cRNA; assay type: cell-based; details: 1 h incubation
T2 construct: We amplified the coding region of SLC5A8 mRNA by RT-PCR using human intestinal mRNA as the template; expressed in transfected cells; host or cells: Xenopus laevis oocytes, 50 ng capped cRNA from the pGH19 construct
T2 sequence (Q8N695 1-610 V193I/F251V): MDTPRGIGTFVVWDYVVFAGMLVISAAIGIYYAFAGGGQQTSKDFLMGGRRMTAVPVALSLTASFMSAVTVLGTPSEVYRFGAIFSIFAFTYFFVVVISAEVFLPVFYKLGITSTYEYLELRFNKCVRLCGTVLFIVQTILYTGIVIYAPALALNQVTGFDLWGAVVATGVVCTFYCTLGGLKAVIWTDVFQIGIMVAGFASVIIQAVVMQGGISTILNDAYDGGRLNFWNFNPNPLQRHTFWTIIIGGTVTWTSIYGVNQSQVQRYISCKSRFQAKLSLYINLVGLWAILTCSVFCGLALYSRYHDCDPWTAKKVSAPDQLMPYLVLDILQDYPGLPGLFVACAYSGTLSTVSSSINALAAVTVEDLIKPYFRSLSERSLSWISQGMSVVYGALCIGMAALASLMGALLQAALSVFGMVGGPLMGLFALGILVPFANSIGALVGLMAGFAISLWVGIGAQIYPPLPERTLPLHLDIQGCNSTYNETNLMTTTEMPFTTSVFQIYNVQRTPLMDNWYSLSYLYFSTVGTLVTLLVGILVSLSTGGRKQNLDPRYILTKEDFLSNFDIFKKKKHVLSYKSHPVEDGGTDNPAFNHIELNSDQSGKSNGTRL
Protocol: The amplified human SLC5A8 cDNA was expressed heterologously in Xenopus oocytes by cRNA injection. Capped cRNA from SLC5A8 cDNA was synthesized using the mMESSAGE mMACHINE kit (Ambion Inc., Austin, Tex.). Mature oocytes (stage 1V or V) from Xenopus laevis were injected with 50 ng cRNA. Uninjected oocytes served as controls. The oocytes were used for uptake and electrophysiological studies 3-6 days after cRNA injection. Uptake of radiolabeled substrates in uninjected and cRNA-injected oocytes was determined as described previously (Fei, Y. J., et al., (1995) Biochemistry 34, 8744-8751).
Eight oocytes were used for each uptake measurement. Electrophysiological studies were performed by the two-microelectrode voltage clamp method (11. Wang, H., Fei, et al., (2000) Am. J. Physiol. 278:C1019-C1030; Inoue, K, et al. (2004) Biochem. J. 378:949-957).
Uptake of short-chain fatty acids in uninjected oocytes and in oocytes injected with SLC5A8 cRNA was measured with 1 h incubation. Concentration of substrates (labeled plus unlabeled) varied in the range of 50-500 μM depending on the specific radioactivity of the substrates. Eight oocytes were used for each uptake measurement. Data represent means±SE.

CCCC(=O)O [butyrate]
Inhibition of ATB0,+-mediated glycine transport (in words) [1]: did not inhibit glycine transport
Fold increase of uptake (cRNA-injected over uninjected) [2]: 4.0 fold

— patent publication US8518989B2, “Prodrugs of short-chain fatty acids and treatment methods” (Georgia Health Sciences University Research Institute, Inc., priority 2005, dated 2013)
